Measurements reported in PubChem BioAssay AID652272 (Drosophila RNAi Screening Center, 2013)
The screen tested about 21,000 reagents; this is a random part of those that have a named target and a result. In the full data, 503 (2.4%) got an active call. 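Raw plate light values, not normalised; calls rest on replicate z-scores that were not deposited; hits include reporter decreases as well as increases.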 Names joined by + are all predicted targets of the reagent. Not stated in the record: the amount of reagent, the time to read-out.

Test: 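Finding fly genes that regulate Hedgehog signal transduction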 (primary screen)
Cells: Drosophila clone 8 (Cl8) cells
Reagents: long dsRNA against Drosophila genes
Read-out: 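Firefly light from a Hedgehog-responsive ptc promoter reporter and Renilla reference light, both read on a plate reader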
Reading the numbers: firefly Hh reporter signal: higher = more ptc reporter light; Renilla reference signal: higher = more Renilla control light
Active means: 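Called a hit if the two-replicate mean z-score lies below -2 or above +3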
Calls: active = hit: reporter lowered or raised; inactive = not a hit

| Target gene | amplicon | firefly Hh reporter signal, replicate 1 | firefly Hh reporter signal, replicate 2 | firefly Hh reporter signal, replicate 3 | Renilla reference signal, replicate 1 | Renilla reference signal, replicate 2 | Outcome |
| --- | --- | --- | --- | --- | --- | --- | --- |
| Art4 (Arginine methyltransferase 4) | DRSC15779 | 72681 | 1.28e5 | – | 2439 | 3180 | inactive |
| CheB42c (Chemosensory protein B 42c) | DRSC04972 | 1.03e5 | 67320 | – | 2572 | 5312 | inactive |
| Mcm10 (Minichromosome maintenance 10) | DRSC03162 | 53130 | 65579 | – | 2597 | 2544 | inactive |
| CG43091 | DRSC13571 | 43912 | 1.70e5 | – | 9312 | 4059 | inactive |
| CG12091 | DRSC08251 | 62656 | 55913 | – | 2313 | 3928 | inactive |
| CG9624 | DRSC16523 | 76277 | 1.06e5 | – | 1880 | 1794 | inactive |
| l(3)72Dr (lethal (3) 72Dr) | DRSC10478 | 1.30e5 | – | – | 4960 | 3589 | inactive |
| wdp (windpipe) | DRSC04367 | 44274 | 66114 | – | 2064 | 2967 | inactive |
| CG13813 | DRSC10068 | 77928 | 1.34e5 | – | 2488 | 3942 | inactive |
| CG5767 | DRSC06953 | 1.19e5 | 69461 | – | 2989 | 5111 | inactive |
| tbrd-3 | DRSC04295 | 64688 | 62304 | – | 1745 | 6245 | inactive |
| CG34348 | DRSC19425 | 73090 | 2.04e5 | – | 2739 | 7458 | inactive |
| CG34348 | DRSC19644 | 73732 | 1.81e5 | – | 2530 | 7424 | inactive |
| CG6225 | DRSC15996 | 63061 | 1.19e5 | – | 2230 | 3353 | inactive |
| Lcp3 (Larval cuticle protein 3) | DRSC07457 | 1.04e5 | 63576 | – | 2567 | 5497 | inactive |
| CG30495 | DRSC06703 | 95776 | 46644 | – | 2339 | 4331 | inactive |
| Dys + snoRNA:Me18S-A1374 | DRSC16232 | 5.32e5 | 1.00e5 | – | 36407 | 2358 | inactive |
| CG10341 | DRSC02040 | 42005 | 33044 | – | 2170 | 1698 | inactive |
| CG11737 | DRSC14364 | 51261 | 1.03e5 | – | 2086 | 2873 | inactive |
| CG7252 | DRSC10789 | 2.14e5 | 1.26e5 | – | 8690 | 4720 | inactive |
| CG43755 | DRSC00012 | 7.14e5 | 3.23e5 | – | 35734 | 11857 | inactive |
| CG12744 | DRSC06164 | 88018 | 56304 | – | 3802 | 2336 | inactive |
| how (held out wings) | DRSC16966 | 8.00e5 | 1.73e5 | – | 48097 | 12829 | inactive |
| ReepB (Receptor expression enhancing protein B) | DRSC07150 | 1.31e5 | 60152 | – | 4646 | 2375 | inactive |
| hh (hedgehog) | DRSC16965 | 5.67e5 | 1.00e5 | – | 37602 | 4008 | inactive |
| CG42685 | DRSC01971 | 2.18e5 | 4.44e5 | 72674 | 5168 | 27152 | inactive |
| mTTF (mitochondrial transcription termination factor) | DRSC01909 | 84598 | 46499 | – | 2164 | 4021 | inactive |
| CG4374 | DRSC15570 | 7.18e5 | 1.35e5 | – | 35235 | 3389 | inactive |
| Drep2 (DNA fragmentation factor-related protein 2) | DRSC07528 | 1.03e5 | 64610 | – | 3850 | 2394 | inactive |
| Uqcc1 + CG9948 | DRSC09690 | 43635 | 57035 | – | 3589 | 3740 | inactive |
| CG10513 | DRSC14248 | 1.16e5 | 1.05e5 | – | 1504 | 2384 | inactive |
| CG15269 | DRSC01942 | 75162 | 59688 | – | 1920 | 5948 | inactive |
| Phf7 (PHD finger protein 7) | DRSC20692 | 1.25e5 | 95171 | – | 3168 | 2272 | inactive |
| CG15530 | DRSC15067 | 1.11e5 | 1.45e5 | – | 2993 | 3393 | inactive |
| CG2685 | DRSC18463 | 1.05e5 | 32372 | – | 7792 | 1584 | active |
| pot (papillote) | DRSC19850 | 87591 | 77512 | – | 2000 | 1834 | inactive |
| CG31075 | DRSC16016 | 94705 | 98834 | – | 3410 | 2752 | inactive |
| obst-H (obstructor-H) | DRSC10935 | 2.20e5 | – | – | 7920 | 6260 | inactive |
| obst-H (obstructor-H) | DRSC10940 | 1.90e5 | – | – | 7760 | 5280 | inactive |
| CG31496 | DRSC12547 | 6.70e5 | 1.43e5 | – | 5474 | 5474 | inactive |
| CG8460 | DRSC03090 | 86392 | 59265 | – | 3792 | 2567 | inactive |
| Gdh (Glutamate dehydrogenase) | DRSC16679 | 85257 | 67793 | – | 3616 | 2496 | inactive |
| msd1 (mitotic spindle density 1) | DRSC08383 | 60752 | 40620 | – | 2333 | 3330 | inactive |
| Gip (GIP-like) | DRSC18667 | 5.16e5 | 1.13e5 | – | 4706 | 4706 | inactive |
| CG17646 | DRSC00507 | 1.47e5 | 1.22e5 | – | 5873 | 4869 | inactive |
| Syx13 (Syntaxin 13) | DRSC09836 | 44077 | 40186 | 52192 | 3942 | 3076 | inactive |
| bwa (brain washing) | DRSC01749 | 1.47e5 | 2.22e5 | – | 4038 | 10395 | inactive |
| bwa (brain washing) | DRSC02310 | 96540 | 63193 | – | 2746 | 5498 | inactive |
| pira (pirate) | DRSC19494 | 95595 | 2.74e5 | – | 3746 | 10576 | inactive |
| lectin-24A | DRSC00604 | 1.08e5 | 58915 | – | 2658 | 5271 | inactive |
| RNaseZ (Ribonuclease Z) | DRSC06845 | 86829 | 72920 | – | 2298 | 5153 | inactive |
| CG18853 | DRSC06795 | 94557 | 65057 | – | 2192 | 5212 | inactive |
| Or98b (Odorant receptor 98b) | DRSC16775 | 1.54e5 | 1.61e5 | – | 3767 | 5045 | inactive |
| GstD10 (Glutathione S transferase D10) | DRSC15346 | 65732 | 1.10e5 | – | 2267 | 2886 | inactive |
| CG4617 | DRSC18377 | 60857 | 60329 | – | 1652 | 1579 | inactive |
| neo (neyo) | DRSC16316 | 99479 | 87553 | – | 2384 | 2400 | inactive |
| CG13744 | DRSC06415 | 1.09e5 | 65718 | – | 2976 | 6043 | inactive |
